Patent publication US20250320294A1
No constants are given. Whether binding was seen depends on the method and setting. Some binding calls cover weakened binding; strength is not graded here.

Amino acid sequences for entries named in this document (tags omitted). Residues count along the entry.
UniProt P08575, residues 26-1306: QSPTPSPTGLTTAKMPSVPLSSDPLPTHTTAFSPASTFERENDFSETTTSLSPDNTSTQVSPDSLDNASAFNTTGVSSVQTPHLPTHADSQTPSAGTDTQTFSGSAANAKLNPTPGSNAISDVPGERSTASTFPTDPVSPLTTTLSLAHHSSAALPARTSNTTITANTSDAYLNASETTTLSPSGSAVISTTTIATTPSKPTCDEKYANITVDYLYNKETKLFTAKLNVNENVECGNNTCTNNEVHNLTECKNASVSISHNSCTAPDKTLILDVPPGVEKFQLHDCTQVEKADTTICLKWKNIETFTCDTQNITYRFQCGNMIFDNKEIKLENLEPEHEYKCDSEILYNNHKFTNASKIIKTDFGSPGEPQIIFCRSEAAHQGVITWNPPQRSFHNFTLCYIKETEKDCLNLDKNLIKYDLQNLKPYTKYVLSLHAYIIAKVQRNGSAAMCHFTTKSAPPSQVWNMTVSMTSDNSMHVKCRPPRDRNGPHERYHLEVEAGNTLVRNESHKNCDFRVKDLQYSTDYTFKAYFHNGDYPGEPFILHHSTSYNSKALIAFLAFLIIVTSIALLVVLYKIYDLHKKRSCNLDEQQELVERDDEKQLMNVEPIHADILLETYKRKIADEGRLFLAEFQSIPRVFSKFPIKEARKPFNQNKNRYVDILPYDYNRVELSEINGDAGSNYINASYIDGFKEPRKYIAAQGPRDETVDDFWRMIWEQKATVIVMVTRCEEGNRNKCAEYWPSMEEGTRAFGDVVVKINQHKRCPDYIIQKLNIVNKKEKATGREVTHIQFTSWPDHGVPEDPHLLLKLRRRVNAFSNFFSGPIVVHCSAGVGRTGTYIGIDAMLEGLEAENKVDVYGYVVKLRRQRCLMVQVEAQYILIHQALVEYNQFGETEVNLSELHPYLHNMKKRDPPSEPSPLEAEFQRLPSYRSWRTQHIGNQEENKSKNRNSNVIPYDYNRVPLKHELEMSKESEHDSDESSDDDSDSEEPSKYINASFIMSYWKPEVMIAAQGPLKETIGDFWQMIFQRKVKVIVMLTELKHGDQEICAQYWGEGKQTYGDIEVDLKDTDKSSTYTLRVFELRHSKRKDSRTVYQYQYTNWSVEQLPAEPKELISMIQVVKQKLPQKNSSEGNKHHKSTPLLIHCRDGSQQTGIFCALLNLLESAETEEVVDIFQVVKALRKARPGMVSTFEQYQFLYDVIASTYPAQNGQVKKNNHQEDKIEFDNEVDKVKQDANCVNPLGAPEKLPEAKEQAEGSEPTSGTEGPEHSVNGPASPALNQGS

Columns and labels:
cell-expressed CD45 [1] = biological target: cell-expressed CD45 (UniProt P08575); assay: flow cytometry, wild type Jurkat T cells, 10, 1 or 0.1 µg/ml antibody, anti-human-Fc secondary
cell-expressed CD45 [2] = biological target: cell-expressed CD45 (UniProt P08575); assay: flow cytometry, wild type Raji B cells, 10, 1 or 0.1 µg/ml antibody, anti-human-Fc secondary
cell-expressed CD45 [3] = biological target: cell-expressed CD45 (UniProt P08575); assay: flow cytometry, Raji cells
cell-expressed CD45 [4] = biological target: cell-expressed CD45 (UniProt P08575); assay: flow cytometry, Jurkat cells

binding (cell-expressed CD45 [1])	binding (cell-expressed CD45 [2])	binding (cell-expressed CD45 [3])	binding (cell-expressed CD45 [4])	Binder
binds	binds	binds	binds	anti-CD45 antibody clone 031 (antibody, V domains shown) VH: DVQLVESGGGLVQPGGSRKLSCAASGFTFSSFGMHWVRQAPEKGLEWVAYINSGSTTFYYADTVKGRFTISRDNPKNTLFLQMTSLGSEDTAMYYCARSATATWTMDYWGQGTSVTVSS VL: NIMMTQSPSSLAVSAGEKVTMSCKSSQSVFVSSNQKNYLAWYQQKPGQSPKLLIYWASTRESAVPDRFTGSGSGTDFTLTIGSVQAEDLAVYYCHQYLSSWTFGGGTKLEIK
binds	binds	binds	binds	anti-CD45 antibody clone 028 (antibody, V domains shown) VH: QVQLQQSGAELARPGASVKMSCKASGYTFTFYAILWVKQMPGQGLEWIGFINPSSGYTSYNQKFKDKATLTADKSSSTAYMQLSSLTSEDSAVYYCARDYGLDYWGQGTTLAVSS VL: DIVMTQAAPSVPVTPGESVSISCRSSKSLLHSNGNTYLYWFLQRPGQSPQLLIYRMSNLASGVPDRFSGSGSGTAFTLGISRVEAGDVGVYYCMQHLEYPFTFGSGTKLEIK
binds	binds	binds	binds	anti-CD45 antibody clone 042 (antibody, V domains shown) VH: EVQLQQSGAELVKPGASVKLSCTASGFNIKDTFMHWVKLRPEQGLEWIGRIDPANGYTKYDPRFQGKATIIADTSSNTAYLQLSSLTSEDTAVYYCASGEYYALDYWGQGTSVTVSS VL: DIVLTQSPASLTVSLGQRATISCRASKSVSTSGYSYMHWYQQKPGQPPKLLIYLASNLESGVPARFSGSGSGTDFTLNIHPVEEEDAATYYCQHNRELPYTFGGGTKLEIK
